16 molecules from PubChem BioAssay AID248 (DTP/NCI, 2004) can be followed below.

The experiment concerns L1210 leukemia ip in BDF1 mice, survival T/C. Description: NCI In Vivo Anticancer Drug Screen. Data for tumor model L1210 Leukemia (intraperitoneal) in B6D2F1 (BDF1) mice. As to conditions: T/C endpoint: mean survival time, higher T/C = longer survival.
Setting [1] is: dose: 100.0 mg/kg/injection, schedule: Q01DX009 (ip), vehicle: saline with Tween-80.
[2] abbreviates: dose: 400.0 mg/kg/injection, schedule: Q04DX003 (ip), vehicle: saline with Tween-80.
Setting [3] is: dose: 200.0 mg/kg/injection, schedule: Q01DX009 (ip), vehicle: saline with Tween-80.
Setting [4] is: dose: 400.0 mg/kg/injection, schedule: Q01DX009 (ip), vehicle: saline with Tween-80.
[5] abbreviates: dose: 12.5 mg/kg/injection, schedule: Q04DX003 (ip), vehicle: Klucel (hydroxypropylcellulose) (HPC).
Where [6] appears, read: dose: 25.0 mg/kg/injection, schedule: Q04DX003 (ip), vehicle: Klucel (hydroxypropylcellulose) (HPC).
[7] abbreviates: dose: 50.0 mg/kg/injection, schedule: Q04DX003 (ip), vehicle: Klucel (hydroxypropylcellulose) (HPC).
[8] abbreviates: dose: 100.0 mg/kg/injection, schedule: Q04DX003 (ip), vehicle: Klucel (hydroxypropylcellulose) (HPC).
Where [9] appears, read: dose: 200.0 mg/kg/injection, schedule: Q04DX003 (ip), vehicle: Klucel (hydroxypropylcellulose) (HPC).
The mark [10] stands for this setting: dose: 400.0 mg/kg/injection, schedule: Q04DX003 (ip), vehicle: Klucel (hydroxypropylcellulose) (HPC).

The list does not hold the whole screen: it gathers tests that were run many times, whatever their T/C, doses with no T/C, and many T/C values between a quarter and a half above the control. Further doses and runs are listed elsewhere. T/C: endpoint of the treated group in % of that of the vehicle group. Some entries give survivors of the animals treated and no T/C: the source holds a T/C of zero for them, seemingly a mark for toxic or unscored doses. Some doses without a T/C left all or most animals alive at the check, yet need not have been tolerated: survival well below the control is almost never listed, so the zero probably covers shortened survival too. Survivors were counted at the toxicity check, usually on the fifth day, unless a day is given; later deaths do not show. Schedule codes are those of the source, taken here to give the interval after Q, in days (D) or hours (H), and the number of doses after X. Some doses were run more than once; the values are given in rising order. For survival time, the PubChem record calls one and a half times the control and up active, and a quarter to a half above the control has no call in these data; cut-offs in other NCI protocols can differ. Some T/C values are followed by the survivors on the day toxicity was checked, most often the fifth; where none is given, no animal had died by that day.

As for `COc1ccc(C(=O)CBr)c(OC)c1`, the survivor count runs as follows: (dose: 50.0 mg/kg/injection, schedule: Q01DX009 (ip), vehicle: saline with Tween-80) 2 of 6; under setting [1], 0 of 6; (dose: 200.0 mg/kg/injection, schedule: Q04DX003 (ip), vehicle: saline with Tween-80) 1 of 6; under setting [2], 0 of 6.
As for `C#CC[N+](CCO)(CCO)CCCCCCCCCCCCCCCCCC`, the survivor count is, setting by setting: (dose: 100.0 mg/kg/injection, schedule: Q04DX002 (ip), vehicle: saline with Tween-80) 1 of 3; (dose: 200.0 mg/kg/injection, schedule: Q04DX002 (ip), vehicle: saline with Tween-80) 0 of 3; (dose: 400.0 mg/kg/injection, schedule: Q04DX002 (ip), vehicle: saline with Tween-80) 0 of 3.
As to `C[CH2][Pb]([CH2]C)([CH2]C)[O]C(=O)C(Cl)(Cl)Cl`, the survivor count was 3 of 6 and 6 of 6 (dose: 1.56 mg/kg/injection, schedule: Q01DX009 (ip), vehicle: other); 3 of 6 (dose: 3.12 mg/kg/injection, schedule: Q01DX009 (ip), vehicle: other); 1 of 6 and 1 of 3 (dose: 6.25 mg/kg/injection, schedule: Q01DX009 (ip), vehicle: other); 2 of 3 (dose: 12.5 mg/kg/injection, schedule: Q01DX009 (ip), vehicle: other); 0 of 3 (dose: 25.0 mg/kg/injection, schedule: Q01DX009 (ip), vehicle: other); 0 of 6 (dose: 50.0 mg/kg/injection, schedule: Q01DX001 (ip), vehicle: other). Further, the survivor count is 0 of 3 and 0 of 6 (dose: 50.0 mg/kg/injection, schedule: Q04DX002 (ip), vehicle: carboxymethylcellulose (CMC)); 0 of 6 (dose: 50.0 mg/kg/injection, schedule: Q04DX003 (ip), vehicle: other); 0 of 6 (dose: 100.0 mg/kg/injection, schedule: Q01DX001 (ip), vehicle: other); 0 of 3 and 0 of 6 (dose: 100.0 mg/kg/injection, schedule: Q04DX002 (ip), vehicle: carboxymethylcellulose (CMC)); 0 of 3 and 0 of 6 (dose: 200.0 mg/kg/injection, schedule: Q04DX002 (ip), vehicle: carboxymethylcellulose (CMC)); 0 of 3 and 0 of 6 (dose: 400.0 mg/kg/injection, schedule: Q04DX002 (ip), vehicle: carboxymethylcellulose (CMC)).
Turning to `Cc1c(Cl)cccc1NC(=O)N(C)Cc1ccccc1`, the T/C under setting [1] is listed as 97, 113, 118, 119 % of control; the T/C under setting [3] is 106, 108, 118, 132 % of control; the T/C under setting [4] was 100, 103, 118, 121 % of control.
Regarding `OCCCCCCCCCCCC[n+]1ccccc1`, the survivor count reads like this: (dose: 175.0 mg/kg/injection, schedule: Q01DX001 (ip), vehicle: saline) 0 of 6; (dose: 350.0 mg/kg/injection, schedule: Q01DX001 (ip), vehicle: saline) 0 of 6.
As for `COc1ccc(Cl)cc1NC(=O)C(Br)C(Br)C(=O)O` (stereo not given), for the setting “dose: 400.0 mg/kg/injection, schedule: Q01DX009 (ip), vehicle: other”, the survivor count is reported as 3 of 6.
For the molecule `O=C(c1c(F)c(F)c(F)c(F)c1F)N1CC1`, the survivor count was 3 of 6 (dose: 100.0 mg/kg/injection, schedule: Q01DX009 (ip), vehicle: water); 1 of 6 (dose: 200.0 mg/kg/injection, schedule: Q01DX009 (ip), vehicle: water); 0 of 6 (dose: 400.0 mg/kg/injection, schedule: Q01DX009 (ip), vehicle: water).
In the case of `CC1(C)N=C(N)N=C(N)N1c1cccc(CC(=O)Nc2ccc(S(=O)(=O)F)cc2)c1`, the T/C is 128 % of control under setting [1]; 140 and 141 % of control [5 of 6 alive] under setting [3]. The survivor count runs as follows: under setting [4], 4 of 6; (dose: 500.0 mg/kg/injection, schedule: Q01DX009 (ip), vehicle: saline) 0 of 6.
On to `FC1(F)SC2C3CC(C4CCC=C43)C2C1(F)F` (stereo not given), for which the survivor count by setting is: (dose: 3.13 mg/kg/injection, schedule: Q01DX009 (ip), vehicle: Klucel (hydroxypropylcellulose) (HPC)) 1 of 6; (dose: 6.25 mg/kg/injection, schedule: Q04DX003 (ip), vehicle: Klucel (hydroxypropylcellulose) (HPC)) 0 of 6; under setting [5], 0 of 6; under setting [6], 0 of 6; under setting [7], 0 of 6; under setting [8], 0 of 6. Moreover, the survivor count by setting is: under setting [9], 0 of 6; under setting [10], 0 of 6.
Take `Cc1ccc(Cl)c(NC(=O)Nc2ccccc2Cl)c1`: the survivor count (dose: 200.0 mg/kg/injection, schedule: Q01DX009 (ip), vehicle: Klucel (hydroxypropylcellulose) (HPC)) is on record as 6 of 6.
As to `CC1=CC(=O)N(CCl)C1=O`, the survivor count under setting [2] is recorded as 0 of 6.
Take `Cc1c(Cl)cccc1NC(=O)NCCC(C)C`: under setting [3], the survivor count is recorded as 6 of 6.
Consider `NNC(=O)CNc1ccc(F)c(F)c1`, for which the survivor count (dose: 400.0 mg/kg/injection, schedule: Q04DX002 (ip), vehicle: Klucel (hydroxypropylcellulose) (HPC)) is on record as 0 of 3.
For `O=NN(C(=O)Nc1ccccc1)c1ccccc1`, the survivor count runs as follows: (dose: 200.0 mg/kg/injection, schedule: Q01DX001 (ip), vehicle: carboxymethylcellulose (CMC)) 0 of 6; (dose: 300.0 mg/kg/injection, schedule: Q01DX001 (ip), vehicle: carboxymethylcellulose (CMC)) 0 of 6; (dose: 400.0 mg/kg/injection, schedule: Q01DX001 (ip), vehicle: carboxymethylcellulose (CMC)) 0 of 6; (dose: 500.0 mg/kg/injection, schedule: Q01DX001 (ip), vehicle: carboxymethylcellulose (CMC)) 0 of 6; (dose: 600.0 mg/kg/injection, schedule: Q01DX001 (ip), vehicle: carboxymethylcellulose (CMC)) 0 of 6; (dose: 700.0 mg/kg/injection, schedule: Q01DX001 (ip), vehicle: carboxymethylcellulose (CMC)) 0 of 6. Also, the survivor count reads like this: (dose: 800.0 mg/kg/injection, schedule: Q01DX001 (ip), vehicle: carboxymethylcellulose (CMC)) 0 of 6; (dose: 1000.0 mg/kg/injection, schedule: Q01DX001 (ip), vehicle: carboxymethylcellulose (CMC)) 0 of 6.
In the case of `C[n+]1ccc(/C=C/c2c(Cl)cccc2Cl)c2ccccc21`, the survivor count under setting [5] was 3 of 6; the survivor count under setting [6] was 1 of 6; the survivor count under setting [7] is recorded as 0 of 6; the survivor count under setting [8] was 0 of 6; the survivor count under setting [9] is reported as 0 of 6; the survivor count under setting [10] was 0 of 6.
For `Nc1ccc(Nc2ccc(N)cc2)cc1`, the survivor count is, setting by setting: (dose: 20.0 mg/kg/injection, schedule: Q01DX001 (ip), vehicle: saline) 1 of 4; (dose: 40.0 mg/kg/injection, schedule: Q01DX001 (ip), vehicle: saline) 0 of 4; (dose: 50.0 mg/kg/injection, schedule: Q01DX001 (ip), vehicle: saline) 0 of 4; (dose: 80.0 mg/kg/injection, schedule: Q01DX001 (ip), vehicle: saline) 0 of 4; (dose: 100.0 mg/kg/injection, schedule: Q01DX001 (ip), vehicle: saline) 0 of 4; (dose: 200.0 mg/kg/injection, schedule: Q01DX001 (ip), vehicle: saline) 0 of 4. The survivor count (dose: 400.0 mg/kg/injection, schedule: Q01DX001 (ip), vehicle: saline) was 0 of 4.
